Assay results as given in article PMC12141670.
Results are given in words; binding and its absence hold for the method and conditions named. Binding calls can cover weak binding; strength is not graded here.

Sequences of proteins named here, by UniProt entry; tags and fusion partners are left off. A change or cut given only in a name is not applied to a line headed by its entry.
UniProt Q95X71: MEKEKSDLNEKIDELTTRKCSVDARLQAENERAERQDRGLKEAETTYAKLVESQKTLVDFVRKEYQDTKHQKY

Target: SSNA-1 (C. elegans ortholog of Sjogren's Syndrome Nuclear Antigen 1) (C. elegans) (UniProt Q95X71)
Experiment: co-sedimentation; purified proteins incubated alone or together for 10 min at room temperature; 1.25 μM ZYG-1 or BSA, 10 μM SSNA-1 filaments or GMPCPP microtubules; 30 μL; 80,000 rpm (278,088 × g), TLA-120.2, 10 min, 25 °C; supernatant and pellet by SDS-PAGE and immunoblot; SSNA-1 in 50 mM phosphate pH 7.5, 150 mM NaCl, 10% glycerol, 1 mM DTT; both purified

B1: ZYG-1 (enzyme, UniProt Q9GT24 1-706)
chain: MSGGKSGSRLSAYSHLKEIGKGGFGVVYAAQRENGEKVAIKRIDKKVPKNRVWTEIQTMKELKKSKYVVEFYEDFVEDGYTYIVMELCEGGSLQAYVREHGALDDATAVHVLRQLISAVSFMHRVNVIHRDLSAGNVFIKDSKKKKMTVKLGDFGLATTLGRGETTCTIVGTPGFIAPQVYDQEYTQSADVYSLGAVLYTMLTARNPPPKGLPPTCGMSPNAARLVEQMMDTDAKKRIPLTQIVLSEFMYENTNENAVIFSREHSRDGRRQRSREPVRSSRDDRSRDGRALIRSSSQPAHSGRAPLSNRPIHDRMPSTSSRGFDSERGRERDRDSGRGTVPPSREDRNRSQLWPIRMDRLEGQRVCTAGGRYIVELDTRCRFEVAAQGNFVKRILIVEVDEMVQTVYVHRIPDRTVRGRNGEEELITLTNNPFVYTSYSQMPKEVQNDYMRLQKMVAVTISGRVAKVTFRRPSQFPDAQAQLMENGDLRIKLPRSVIVRKMDNGEIFNCIDGIATQKQAVSGITLTKVNEVYKYLIRFEQCLNGMDRGMVCFPIVFSAGTNMVGSSPSSLMPSGSSQTSRFPFSNLSNNQPSLVPHSAPFLTKPTSSQRASSANVQRRVSTDENSSPSVAPSKYKIKIDPTTQKVRSIQATDGRVLRCSTSKADQFIFTDPAIRPDDQRFMRTDRVPDRASEMLHTLCERMRKLHQ
binding: binds
